The subject of the series is chlorogenate esterase. As to the kind of experiment: Cleavage of rosmarinic acid by enzymes (chlorogenate esterase hydrolysis). In kind it is biochemical. The conditions noted are these: for rosmarinic acid hydrolysed: 0.02 units of enzyme, pH 6.6, after 4 h.

Structures are written as SMILES.

As for `O=C(/C=C/c1ccc(O)c(O)c1)O[C@H](Cc1ccc(O)c(O)c1)C(=O)O` [rosmarinic acid], the rosmarinic acid hydrolysed entry is, setting by setting: (1 mg substrate, 40° C.) “more than 90%”; (6 mg substrate, 40° C.) 40%. In addition, the hydrolysis entry (0.02 U/mg, pH 5.0) is “no hydrolysis was observed”. Further, the “transformation of rosmarinic acid” value (0.02 U/mg, pH 8.0, after 2 h) is on record as “completely transformed”. The “transformation into caffeic acid and 3,4-dihydroxy phenyllacetic acid” value (1 U/mg of substrate, phosphate buffer pH 6.6, 40° C., after 30 min) was “completely transformed”.
